± gives the standard deviation of the averaged measurements. This is one part of the list.
Compound: Nc1nc2c(ncn2[C@@H]2O[C@H](COP(=O)(O)OP(=O)(O)OP(=O)(O)O)[C@@H](O)[C@H]2O)c(=O)[nH]1 [guanosine triphosphate]
Experiment: NP40-soluble protein abundance relative to vehicle (solubility fold change) (ratio); higher = more soluble protein in presence of GTP
Experimental: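 Solubility proteome profiling in Jurkat crude lysate. Lysate was treated with Mg-GTP (0.1-10 mM) for 10 min at room temperature and 3 min at 37 °C, then solubilised with 0.8% NP40 and benzonase, followed by ultracentrifugation. Proteins were quantified by TMT10 LC-MS/MS; the value is the NP40-soluble abundance relative to the NP40-processed vehicle, from 3 independent experiments.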

The chains behind the UniProt entries cited, without tags or fusion partners. Where a name states a change or a piece, a line headed by the entry shows the natural chain unless it says otherwise.
UniProt P23921: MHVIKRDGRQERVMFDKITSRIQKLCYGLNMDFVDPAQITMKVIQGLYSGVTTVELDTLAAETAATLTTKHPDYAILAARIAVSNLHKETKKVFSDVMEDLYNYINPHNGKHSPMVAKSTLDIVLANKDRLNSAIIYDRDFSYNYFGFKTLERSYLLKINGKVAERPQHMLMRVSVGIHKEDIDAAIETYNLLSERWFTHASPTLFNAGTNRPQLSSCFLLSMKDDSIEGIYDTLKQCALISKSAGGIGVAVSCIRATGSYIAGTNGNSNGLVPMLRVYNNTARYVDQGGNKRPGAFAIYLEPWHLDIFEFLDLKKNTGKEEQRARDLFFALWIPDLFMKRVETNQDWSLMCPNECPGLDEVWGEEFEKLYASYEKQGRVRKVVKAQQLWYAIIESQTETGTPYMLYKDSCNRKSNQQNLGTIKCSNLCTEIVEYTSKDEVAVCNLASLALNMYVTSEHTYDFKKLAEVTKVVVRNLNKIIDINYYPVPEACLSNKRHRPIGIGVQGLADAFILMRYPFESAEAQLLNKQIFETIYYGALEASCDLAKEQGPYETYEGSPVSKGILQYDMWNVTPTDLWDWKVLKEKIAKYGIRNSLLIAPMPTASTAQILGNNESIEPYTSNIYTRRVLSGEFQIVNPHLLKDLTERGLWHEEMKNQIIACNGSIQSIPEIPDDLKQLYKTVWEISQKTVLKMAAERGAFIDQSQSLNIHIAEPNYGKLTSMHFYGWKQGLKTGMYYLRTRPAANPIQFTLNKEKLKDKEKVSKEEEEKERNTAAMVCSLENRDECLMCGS
UniProt P09104, whole entry: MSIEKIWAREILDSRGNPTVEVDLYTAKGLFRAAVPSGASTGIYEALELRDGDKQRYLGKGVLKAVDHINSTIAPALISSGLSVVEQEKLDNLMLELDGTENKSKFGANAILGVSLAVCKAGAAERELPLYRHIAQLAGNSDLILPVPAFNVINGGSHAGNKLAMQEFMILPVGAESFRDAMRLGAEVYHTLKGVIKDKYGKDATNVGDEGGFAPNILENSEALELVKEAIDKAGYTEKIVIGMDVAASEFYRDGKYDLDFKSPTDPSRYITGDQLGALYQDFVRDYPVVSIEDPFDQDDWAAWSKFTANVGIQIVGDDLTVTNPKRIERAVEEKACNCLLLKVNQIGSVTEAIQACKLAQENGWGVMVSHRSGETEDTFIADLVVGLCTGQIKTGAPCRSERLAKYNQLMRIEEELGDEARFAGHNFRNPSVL
UniProt P24666: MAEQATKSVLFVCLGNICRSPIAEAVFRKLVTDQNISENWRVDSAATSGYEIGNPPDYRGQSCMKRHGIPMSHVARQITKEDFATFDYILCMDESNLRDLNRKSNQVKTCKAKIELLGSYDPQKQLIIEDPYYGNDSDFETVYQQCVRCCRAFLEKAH

| Target | NP40-soluble protein abundance (concentration: 0.1mM) | NP40-soluble protein abundance (concentration: 0.5mM) | NP40-soluble protein abundance (concentration: 1mM) | NP40-soluble protein abundance (concentration: 2mM) | NP40-soluble protein abundance (concentration: 4mM) | NP40-soluble protein abundance (concentration: 6mM) | NP40-soluble protein abundance (concentration: 8mM) | NP40-soluble protein abundance (concentration: 10mM) |
| --- | --- | --- | --- | --- | --- | --- | --- | --- |
| UniProt P23921 and related entries | 1.03 ± 0.063 | 1.04 ± 0.088 | 0.898 ± 0.046 | 0.922 ± 0.1 | 0.9 ± 0.06 | 0.902 ± 0.079 | 0.858 ± 0.038 | 0.807 ± 0.098 |
| ENO2 (UniProt P09104) | 0.941 ± 0.092 | 0.938 ± 0.067 | 0.948 ± 0.038 | 0.9 ± 0.048 | 0.908 ± 0.069 | 0.895 ± 0.037 | 0.901 ± 0.039 | 0.88 ± 0.081 |
| RPS3 (UniProt P23396) | 1.01 ± 0.1 | 1 ± 0.14 | 0.983 ± 0.18 | 0.954 ± 0.23 | 0.879 ± 0.23 | 0.828 ± 0.22 | 0.749 ± 0.17 | 0.782 ± 0.21 |
| UniProt P24666 and related entries | 0.894 ± 0.1 | 0.829 ± 0.063 | 0.853 ± 0.1 | 0.84 ± 0.097 | 0.824 ± 0.083 | 0.802 ± 0.067 | 0.813 ± 0.1 | 0.841 ± 0.092 |
| UniProt P20290 and related entries | 0.907 ± 0.069 | 0.875 ± 0.1 | 0.991 ± 0.056 | 0.966 ± 0.11 | 1.02 ± 0.095 | 1.05 ± 0.12 | 1.06 ± 0.12 | 1.08 ± 0.081 |

Source: the supplement of paper PMC6411743
